Laboratory results as given in article doi:10.1101/2020.08.27.268672 (bioRxiv, 2020).
Results are given in words; binding and its absence hold for the method and conditions named. Binding seen in cells or lysates may run through a third protein.

Target: T1, DarB-Strep (Bacillus subtilis) (UniProt O31698)
T1 sequence: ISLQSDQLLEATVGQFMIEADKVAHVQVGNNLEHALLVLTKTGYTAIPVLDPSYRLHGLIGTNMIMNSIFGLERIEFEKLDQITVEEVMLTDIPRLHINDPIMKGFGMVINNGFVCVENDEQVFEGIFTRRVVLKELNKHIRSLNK
Experiment: pull-down

Row | binding | Substance
1 | no binding | SasA (endogenous) (Bacillus subtilis (endogenous in GP3429)) (enzyme)
2 | no binding | SasB (endogenous) (Bacillus subtilis (endogenous in GP3429)) (enzyme)
